In paper PMC3121800:
These are yes or no findings as the source states them, for the method shown. In cells and extracts the contact can be indirect. Where a sequence is shown, tags or fusion partners need not be part of it.

Biological target: T1, 3xFLAG-IncD (C. trachomatis (L2/434/Bu)) (UniProt B0B9M3)
T1 sequence: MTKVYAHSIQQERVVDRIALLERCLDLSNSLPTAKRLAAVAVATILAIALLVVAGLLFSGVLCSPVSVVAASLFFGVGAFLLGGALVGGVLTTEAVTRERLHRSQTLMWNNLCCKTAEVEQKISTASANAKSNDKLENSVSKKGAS
Test: co-IP; HEK293 co-transfected 48 h; lysis in 20 mM Tris pH 7.5, 150 mM NaCl, 2 mM EDTA, 1% Triton X-100; anti-FLAG M2 agarose beads 2 h, 4°C; eluted with 3XFLAG peptide; immunoblot with anti-GFP and anti-FLAG

CERTΔPH-GFP construct lacking the PH domain (domain or fragment)
binding: no binding
